Some of the results follow. The main result of the screen is listed elsewhere. These columns were measured beside it and carry no call. Most of these compounds were active or inconclusive in the main read-out, so they are no random draw. Words in brackets tell the shape of the fitted curve; partial curves, single points and poor fits give uncertain potencies.
Test: qHTS Assay for Lipid Storage Modulators in Drosophila S3 Cells;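 on cell number change: cells counted by Cell Tracker Red CMTPX staining in the red channel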
Details: BODIPY lipid droplet fluorescence, 18-24 h; for cell number change: measured here: cell count max response, cells fed with added oleic acid
Procedure, shortened: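 Drosophila S3 cells loaded with oleic acid (400 uM, as added) and compounds at several concentrations; lipid droplets imaged by 488-nm laser-scanning cytometry, 500–530 nm intensity and object ratio to cell channel. Percent activity normalized to 20 uM Triacsin C.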

[1] = measured here: lipid fluorescence (Fed channel) AC50, cells fed with added oleic acid
[2] = measured here: cell number channel AC50, cells fed with added oleic acid

SMILES: CC(NC(=O)Nc1ccc2c(c1)OCO2)C1CCCO1 (centres undefined)
- cell number change: 3.37%
- AC50 [1]: 8.2 µM [rising, partial curve]

SMILES: CN(C)C(=O)c1ccc(NC(=O)COC(=O)Cn2cc(C(F)(F)F)ccc2=O)cc1
- cell number change: 4.9%
- AC50 [1]: 29.1 µM [falling, single point]

SMILES: COc1cc(/C=C2\SC(=S)N(CCC(=O)N3CCCCC3)C2=O)cc(OC)c1OC
- cell number change: -3.81%

SMILES: O=C(NC(Cc1ccccc1)C(=O)O)OCc1ccccc1 (centres undefined)
- cell number change: 0.775%
- AC50 [1]: 0.411 µM [falling, full curve, poor fit]

SMILES: COc1ccc(CNC(=O)c2ccc(CS(=O)(=O)c3ccc(C)cc3)o2)cc1
- cell number change: -12.5%

SMILES: CC1CCCC(NC(=O)CCCn2ncn3c(cc4occc43)c2=O)C1C (centres undefined)
- cell number change: -9.54%
- AC50 [1]: 18.4 µM [rising, partial curve]

SMILES: COc1cc(C)ccc1OCc1cc(C(=O)N2CCCCCC2)no1
- cell number change: -0.216%
- AC50 [2]: 0.517 µM [rising, single point]
- AC50 [1]: 0.517 µM [rising, partial curve, poor fit]

SMILES: O=C(Nc1nnc(SCc2ccccc2)s1)c1ccco1
- cell number change: 51%

SMILES: COCCOC(=O)c1c(C)n(C)c2ccc(OC(=O)c3c(OC)cccc3OC)cc12
- cell number change: 14.4%
- AC50 [1]: 29.1 µM [rising, single point]

SMILES: CSc1nnc(CSc2cc(C)nc(N(C)C)n2)o1
- cell number change: 8.76%
- AC50 [2]: 0.92 µM [rising, full curve, poor fit]
- AC50 [1]: 1.16 µM [rising, partial curve]

SMILES: O=C(N/N=C\CCc1ccccc1)c1ccco1
- cell number change: 30.5%
- AC50 [2]: 9.2 µM [rising, partial curve, poor fit]

SMILES: COc1ccc(-c2sc(NC(C)=O)nc2-c2ccccc2)cc1
- cell number change: 16.8%
- AC50 [1]: 1.64 µM [rising, full curve, poor fit]

SMILES: CCCC(=O)Nc1nnc(SCC(=O)Nc2ccc3c(c2)OCO3)s1
- cell number change: 170%
- AC50 [2]: 29.1 µM [rising, single point]

SMILES: CCOC(=O)N1CCN(C(=O)CSCC(=O)Nc2nc(-c3ccc(OC)cc3)cs2)CC1
- AC50 [2]: 1.84 µM [rising, partial curve]
- AC50 [1]: 1.46 µM [rising, partial curve]

SMILES: Cc1[nH]c2ccccc2c1/C=N/Nc1nc(Nc2ccccc2)nc(N2CCOCC2)n1
- cell number change: -50.2%
- AC50 [2]: 7.31 µM [falling, partial curve]
- AC50 [1]: 2.59 µM [falling, full curve]

SMILES: N#C/C(=C\c1cccs1)c1nc2ccccc2[nH]1
- cell number change: 25.7%
- AC50 [1]: 2.06 µM [rising, partial curve]

SMILES: COc1ccccc1N(CC(=O)Nc1ccc2c(c1)OCCO2)S(C)(=O)=O
- cell number change: 5.89%
- AC50 [1]: 29.1 µM [falling, single point]

SMILES: Nc1nc(Nc2ccccc2F)nc(NC2CCCCC2)c1[N+](=O)[O-]
- cell number change: -51%
- AC50 [2]: 20.6 µM [falling, single point]
- AC50 [1]: 7.31 µM [falling, single point]

SMILES: CN(CC(=O)Nc1cccc(F)c1)C(=O)c1ccc2c(c1)S(=O)(=O)N=C1CCCCCN12
- cell number change: 75%
- AC50 [2]: 11.6 µM [rising, partial curve]

SMILES: Cc1onc(-c2ccccc2)c1C(=O)Nc1nnc(C(C)(C)C)s1
- cell number change: -24.6%
- AC50 [1]: 29.1 µM [rising, single point]

SMILES: COc1cccc(-c2nc3ccccc3c(=O)n2NC(=O)c2cccnc2Cl)c1
- cell number change: 4.79%
- AC50 [1]: 0.259 µM [rising, full curve, poor fit]

SMILES: CCCn1c(=O)c(C(=O)NCCCc2ccccc2)c(O)c2ccccc21
- cell number change: -12.9%
- AC50 [1]: 0.651 µM [rising, single point]

SMILES: CCn1cc(/C=C(\NC(=O)c2ccccc2F)C(=O)NCCCN2CCOCC2)c2ccccc21
- AC50 [1]: 2.06 µM [falling, partial curve]

SMILES: O=C(NCCc1ccccc1Cl)C1CCC(=O)N(Cc2cccc(C(F)(F)F)c2)C1 (centres undefined)
- cell number change: -11.7%
- AC50 [1]: 7.31 µM [falling, partial curve, poor fit]

SMILES: COc1ccc(CN(C(=O)CSc2nnc(-c3ccc(F)cc3)o2)c2ccc(F)cc2)cc1
- cell number change: 3.81%
- AC50 [1]: 7.31 µM [rising, partial curve, poor fit]

SMILES: Cc1ccc(OCCCCn2c(CO)nc3ccccc32)cc1
- cell number change: -32.3%
- AC50 [2]: 18.4 µM [falling, single point]
- AC50 [1]: 29.1 µM [falling, single point]

SMILES: CCN=c1scc(-c2cccs2)n1/N=C/c1cc(OC)ccc1O
- cell number change: -33.2%
- AC50 [2]: 29.1 µM [falling, single point]
- AC50 [1]: 0.231 µM [falling, full curve, poor fit]

SMILES: O=C1N/C(=N/N=C/c2ccc(O)cc2)SC1Cc1ccccc1 (centres undefined)
- cell number change: 23.5%

SMILES: COc1ccc(C(=O)c2cnc(/N=C/N(C)C)s2)cc1
- AC50 [2]: 0.092 µM [rising, full curve, poor fit]
- AC50 [1]: 5.17 µM [rising, single point]

SMILES: Cc1ccc(C(=O)N2CCN(c3ccc(C(F)(F)F)cn3)CC2)cc1
- cell number change: -9.62%
- AC50 [2]: 6.51 µM [falling, single point]

SMILES: C=CCn1c(SCC(=O)N2CCN(CCO)CC2)nc2sc3c(c2c1=O)CCC3
- cell number change: 7.62%

SMILES: CCOC(=O)c1ccc(NC(=S)N2CCSC2c2c(F)cc(F)cc2F)cc1 (centres undefined)
- cell number change: 27.4%
- AC50 [2]: 0.58 µM [rising, full curve, poor fit]

SMILES: CC1(C)CC(=O)C=C(c2cccc(Cl)c2O)C1
- cell number change: -34.5%
- AC50 [2]: 10.3 µM [falling, partial curve]

SMILES: COC(=O)C1=CN(Cc2ccc(OC)c(OC)c2)C=C(C(=O)OC)C1c1cccc(O)c1
- cell number change: 14%
- AC50 [1]: 6.51 µM [rising, partial curve, poor fit]

SMILES: CCn1c(SCc2cccc(C(=O)O)c2)nnc1-c1ccccc1
- cell number change: -20%
- AC50 [1]: 23.1 µM [falling, single point]

SMILES: CCOc1nc(OCC)nc(-n2cc(-c3ccccc3)nn2)n1
- cell number change: 18.3%
- AC50 [1]: 1.84 µM [rising, full curve]

SMILES: O=C(NCC(c1ccco1)N1CCCCC1)c1ccc(COc2ccccc2)cc1 (centres undefined)
- cell number change: 124%
- AC50 [2]: 23.1 µM [rising, single point]

From PubChem BioAssay AID2685 (National Center for Advancing Translational Sciences (NCATS), 2010)
